Article PMC8080680
These are yes or no findings as the source states them, for the method shown. Binding seen in cells or lysates may run through a third protein. Some results given as binding are weak or reduced against the parent protein; the word gives no strength.

Protein sequences, listed by entry. Tags and fused reporters are not part of them.
UniProt Q12778: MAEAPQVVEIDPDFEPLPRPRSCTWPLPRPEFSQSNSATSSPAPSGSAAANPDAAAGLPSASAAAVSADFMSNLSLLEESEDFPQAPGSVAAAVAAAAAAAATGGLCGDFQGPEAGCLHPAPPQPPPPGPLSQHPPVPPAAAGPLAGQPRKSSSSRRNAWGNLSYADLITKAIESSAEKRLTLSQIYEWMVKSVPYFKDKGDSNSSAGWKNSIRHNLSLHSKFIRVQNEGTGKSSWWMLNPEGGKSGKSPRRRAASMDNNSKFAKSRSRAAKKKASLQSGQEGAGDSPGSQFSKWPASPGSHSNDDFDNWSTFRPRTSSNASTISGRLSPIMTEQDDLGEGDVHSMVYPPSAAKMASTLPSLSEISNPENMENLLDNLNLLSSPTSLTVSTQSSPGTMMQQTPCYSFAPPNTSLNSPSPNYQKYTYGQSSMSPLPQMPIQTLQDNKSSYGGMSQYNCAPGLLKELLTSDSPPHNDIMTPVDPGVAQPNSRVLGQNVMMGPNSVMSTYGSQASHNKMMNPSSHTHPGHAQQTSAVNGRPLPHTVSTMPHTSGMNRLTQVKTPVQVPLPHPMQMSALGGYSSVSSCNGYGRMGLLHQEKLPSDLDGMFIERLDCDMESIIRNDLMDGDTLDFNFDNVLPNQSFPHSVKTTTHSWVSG

Target: T1, SET8 (human (endogenous in HUVECs)) (UniProt Q9NQR1)
T1 sequence: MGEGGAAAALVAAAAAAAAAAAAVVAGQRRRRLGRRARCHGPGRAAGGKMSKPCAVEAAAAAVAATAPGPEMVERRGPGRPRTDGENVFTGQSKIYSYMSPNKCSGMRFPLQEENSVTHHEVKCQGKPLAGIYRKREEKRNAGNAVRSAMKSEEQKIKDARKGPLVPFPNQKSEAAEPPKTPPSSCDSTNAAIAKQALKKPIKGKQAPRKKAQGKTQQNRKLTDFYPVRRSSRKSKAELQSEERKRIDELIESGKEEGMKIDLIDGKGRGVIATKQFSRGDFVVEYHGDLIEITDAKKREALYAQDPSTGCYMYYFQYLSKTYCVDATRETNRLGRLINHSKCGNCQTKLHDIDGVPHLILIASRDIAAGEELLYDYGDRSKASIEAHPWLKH
Experiment: co-IP; endogenous IP from HUVEC cell extracts; primary antibodies and protein A/G Dynabeads, 4 °C overnight; input, IgG and IP extracts analysed by western blot

- binding: binds
Substance: forkhead box protein O1 (FOXO1) (from UniProt Q12778 1-655)
